This note sets out measurements from PMC6375885, “Specific Inhibition of Soluble γc Receptor Attenuates Collagen-Induced Arthritis by Modulating the Inflammatory T Cell Responses” (Frontiers in Immunology, 2019).

Results are given in words; binding and its absence hold for the method and conditions named.

For experiment [1], the target named is sγcΔ255-263 (mouse (precipitated and detected with α-mouse IL-2Rγ antibody)) (UniProt P34902). The experiment is described as follows: immunoprecipitation, non-reducing SDS-PAGE and immunoblot; culture supernatant of transfected HEK293T cells precipitated with α-mouse IL-2Rγ antibody and protein A/G agarose; resolved under non-reducing conditions (DTT-); blotted with biotinylated α-mouse IL-2Rγ antibody; dimer and monomer bands.

Experiment [2] concerns the target sγcC255A (mouse (precipitated and detected with α-mouse IL-2Rγ antibody)) (UniProt P34902). The experiment is described as above.
Experiment [3] addresses soluble common gamma chain (sγc), wild type (mouse (precipitated and detected with α-mouse IL-2Rγ antibody)) (UniProt P34902). The experiment is described as follows: condition: only with 50 nM core-siAp8 (DNA aptamer) in the medium; immunoprecipitation, SDS-PAGE and immunoblot; HEK293T cells transfected with the sγc construct; 6 h after transfection the medium was changed for medium with full-siAp or core-siAp (DNA aptamers); monomeric and dimeric sγc in the supernatant detected by immunoprecipitation and immunoblot. (In general: In western blotting, separated proteins are transferred to a membrane and probed.)

For experiment [4] the target is unchanged. In words: immunoprecipitation, reducing SDS-PAGE and immunoblot; as a1, but the immunoprecipitates were reduced with DTT (DTT+; also in a dose series).

B1: sγcΔ255-263 (domain or fragment, UniProt P34902 23-254)
chain: WSSKVLMSSANEDIKADLILTSTAPEHLSAPTLPLPEVQCFVFNIEYMNCTWNSSSEPQATNLTLHYRYKVSDNNTFQECSHYLFSKEITSGCQIQKEDIQLYQTFVVQLQDPQKPQRRAVQKLNLQNLVIPRAPENLTLSNLSESQLELRWKSRHIKERCLQYLVQYRSNRDRSWTELIVNHEPRFSLPSVDELKRYTFRVRSRYNPICGSSQQWSKWSQPVHWGSHTVEE
Consider B1, for which the binding entry in experiment [1] is recorded as “no binding”.

B2: sγcC255A (protein, UniProt P34902 23-254)
chain: WSSKVLMSSANEDIKADLILTSTAPEHLSAPTLPLPEVQCFVFNIEYMNCTWNSSSEPQATNLTLHYRYKVSDNNTFQECSHYLFSKEITSGCQIQKEDIQLYQTFVVQLQDPQKPQRRAVQKLNLQNLVIPRAPENLTLSNLSESQLELRWKSRHIKERCLQYLVQYRSNRDRSWTELIVNHEPRFSLPSVDELKRYTFRVRSRYNPICGSSQQWSKWSQPVHWGSHTVEEALQFPPSRI
With B2, the binding result in experiment [2] is reported as “no binding”.

B3: soluble common gamma chain (sγc), wild type (natural protein)
chain: WSSKVLMSSANEDIKADLILTSTAPEHLSAPTLPLPEVQCFVFNIEYMNCTWNSSSEPQATNLTLHYRYKVSDNNTFQECSHYLFSKEITSGCQIQKEDIQLYQTFVVQLQDPQKPQRRAVQKLNLQNLVIPRAPENLTLSNLSESQLELRWKSRHIKERCLQYLVQYRSNRDRSWTELIVNHEPRFSLPSVDELKRYTFRVRSRYNPICGSSQQWSKWSQPVHWGSHTVEECLQFPPSRI
notes: signal peptide in the construct; common gamma chain (γc, IL-2Rγ), the part before the new C-terminal 9 a.a. of the alternatively spliced soluble form; not part of the membrane form of γc; Secreted; found as a disulfide-linked dimer and as a monomer in the supernatant; The reverse primer has no stop codon, so a C-terminal tag from the vector may follow (surmise; also called WT sγc; soluble γc; …)
On to B3, for which the results for the binding result in experiment [3] and in experiment [4] were “no binding” and “no binding (condition: reducing conditions (DTT+))”, respectively.
